Measurements: paper PMC7652828
These are yes or no findings as the source states them, for the method shown. Binding seen in cells or lysates may run through a third protein. Some binding calls cover weakened binding; strength is not graded here.

Sequences of proteins named here, by UniProt entry; tags and fusion partners are left off.
UniProt P29466: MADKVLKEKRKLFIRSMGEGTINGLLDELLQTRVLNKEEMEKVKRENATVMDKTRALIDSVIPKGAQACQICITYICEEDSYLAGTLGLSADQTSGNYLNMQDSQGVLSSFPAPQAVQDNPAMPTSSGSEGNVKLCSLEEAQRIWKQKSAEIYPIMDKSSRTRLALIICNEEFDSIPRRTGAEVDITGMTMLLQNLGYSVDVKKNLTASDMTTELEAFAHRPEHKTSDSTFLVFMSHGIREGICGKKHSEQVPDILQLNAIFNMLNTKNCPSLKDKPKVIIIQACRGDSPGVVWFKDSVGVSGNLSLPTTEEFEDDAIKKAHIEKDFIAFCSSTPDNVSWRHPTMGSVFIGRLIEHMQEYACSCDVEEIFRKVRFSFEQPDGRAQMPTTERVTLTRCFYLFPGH

Target: p62 (human (endogenous in Huh7)) (UniProt Q13501)
Assay: co-IP; Huh7 cells transfected with CD44 siRNA or control siRNA for 48 h, lysed in ice-cold IP buffer; 500 ul lysate with 2 ug antibody (caspase-1, p62, LC3B, NLRP3) or IgG control and protein A/G beads at 4 °C; washed three times; immunoblot

binding: binds
Substance: caspase-1 (from UniProt P29466 1-404)
